# Measured values: PMC5945587
# Sequences of proteins named here, by UniProt entry; tags and fusion partners are left off.
# UniProt Q9UKV8: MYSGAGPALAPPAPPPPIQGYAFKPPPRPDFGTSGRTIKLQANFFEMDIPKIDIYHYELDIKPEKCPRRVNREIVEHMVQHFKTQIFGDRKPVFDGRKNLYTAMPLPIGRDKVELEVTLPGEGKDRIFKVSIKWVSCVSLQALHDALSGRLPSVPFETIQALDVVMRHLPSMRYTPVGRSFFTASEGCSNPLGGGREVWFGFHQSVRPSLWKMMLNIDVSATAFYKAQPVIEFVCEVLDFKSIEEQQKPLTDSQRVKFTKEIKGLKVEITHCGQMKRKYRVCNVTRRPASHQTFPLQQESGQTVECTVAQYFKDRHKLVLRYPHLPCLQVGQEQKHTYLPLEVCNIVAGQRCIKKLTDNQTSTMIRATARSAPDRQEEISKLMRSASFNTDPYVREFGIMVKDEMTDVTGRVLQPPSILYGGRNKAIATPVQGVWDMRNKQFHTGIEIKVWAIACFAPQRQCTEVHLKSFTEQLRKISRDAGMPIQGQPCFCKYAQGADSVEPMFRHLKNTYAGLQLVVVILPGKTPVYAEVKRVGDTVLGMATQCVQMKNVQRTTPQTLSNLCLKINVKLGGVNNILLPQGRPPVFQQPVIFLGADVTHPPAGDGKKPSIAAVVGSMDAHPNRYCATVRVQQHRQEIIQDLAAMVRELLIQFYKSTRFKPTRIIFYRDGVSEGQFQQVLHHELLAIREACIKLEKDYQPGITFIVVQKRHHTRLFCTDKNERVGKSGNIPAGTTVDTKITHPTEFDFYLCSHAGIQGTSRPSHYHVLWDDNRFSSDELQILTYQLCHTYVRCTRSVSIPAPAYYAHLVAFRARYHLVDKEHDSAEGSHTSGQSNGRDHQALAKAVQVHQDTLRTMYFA
# Results are given in words; binding and its absence hold for the method and conditions named. Binding seen in cells or lysates may run through a third protein.
# Target: Argonaute protein AGO2 (human (endogenous in PC3)) (UniProt Q9UKV8)
# Assay: co-IP; protein fraction of an AGO2 RNA immunoprecipitation (RIP-Assay Kit for microRNA, MBL): anti-AGO2 antibody or mouse IgG control on protein G magnetic beads, precleared PC3 cell extracts (siControl or siPTBP1, 48 h), 4 °C overnight; eluted by boiling in Laemmli buffer, western blot
substance,measurement,value
polypyrimidine tract binding protein 1 (PTBP1) (from UniProt P26599-3 1-557),binding,no binding
